Data taken from publication PMC12462666.
Results are given in words; binding and its absence hold for the method and conditions named. Some results given as binding are weak or reduced against the parent protein; the word gives no strength.

Target: T1, RecA (E. coli), P0A7G6
T1 chain: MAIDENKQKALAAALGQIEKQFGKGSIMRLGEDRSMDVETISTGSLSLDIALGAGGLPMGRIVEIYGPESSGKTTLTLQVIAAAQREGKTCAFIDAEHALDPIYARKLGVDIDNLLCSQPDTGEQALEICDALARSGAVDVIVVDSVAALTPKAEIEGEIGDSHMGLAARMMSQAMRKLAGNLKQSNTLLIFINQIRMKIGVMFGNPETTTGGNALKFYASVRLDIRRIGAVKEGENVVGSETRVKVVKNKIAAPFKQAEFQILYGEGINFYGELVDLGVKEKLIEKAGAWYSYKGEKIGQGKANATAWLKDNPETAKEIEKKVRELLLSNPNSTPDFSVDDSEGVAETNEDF
Assay: two-hybrid; bacterial two-hybrid (BACTH, Euromedex): T18 and T25 fragments of adenylate cyclase CyaA in E. coli BTH101; N- and C-terminal fusions; beta-galactosidase activity (ONPG, OD405) normalised to the positive control pKT25-zip + pUT18C-zip; cells grown with 0.5 uM IPTG
Settings: remark: other sources report otherwise

- binding: binds
B1: RecN, P05824 1-553 (protein)
chain: MLAQLTISNFAIVRELEIDFHSGMTVITGETGAGKSIAIDALGLCLGGRAEADMVRTGAARADLCARFSLKDTPAALRWLEENQLEDGHECLLRRVISSDGRSRGFINGTAVPLSQLRELGQLLIQIHGQHAHQLLTKPEHQKFLLDGYANETSLLQEMTARYQLWHQSCRDLAHHQQLSQERAARAELLQYQLKELNEFNPQPGEFEQIDEEYKRLANSGQLLTTSQNALALMADGEDANLQSQLYTAKQLVSELIGMDSKLSGVLDMLEEATIQIAEASDELRHYCDRLDLDPNRLFELEQRISKQISLARKHHVSPEALPQYYQSLLEEQQQLDDQADSQETLALAVTKHHQQALEIARALHQQRQQYAEELAQLITDSMHALSMPHGQFTIDVKFDEHHLGADGADRIEFRVTTNPGQPMQPIAKVASGGELSRIALAIQVITARKMETPALIFDEVDVGISGPTAAVVGKLLRQLGESTQVMCVTHLPQVAGCGHQHYFVSKETDGAMTETHMQSLNKKARLQELARLLGGSEVTRNTLANAKELLAA
